Taken from: PubChem BioAssay AID1159578 (Peter MacCallum Cancer Centre, 2015)
This is one part, drawn at random, of about 18,000 reagents. In the full data, about 1,030 (5.7%) were called active. 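Inactive calls also include pools with fewer than 3300 nuclei, whose migration was not assessed.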 Raw values are not corrected between plates. Unmarked entries are inactive. Further read-outs or replicates are left out here.

- Screen: 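siRNA pools altering how lymphatic endothelial cells close a scratch wound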 (primary screen)
- Cells: human lymphatic endothelial cells
- Knock-down reagent: siRNA pool against human genes, 40 nM
- Duration: 48 h after transfection
- Measured: 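High-content imaging of dye-stained cells in a scratch assay measures filled wound area and nuclei per well; duplicate means given as ratio to mock and robust z-score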
- Reading the numbers: migration robust z-score: higher = faster migration into the scratch; nuclei per well: higher = more cells in the well
- Call rule: 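Pools averaging fewer than 3300 nuclei are never called; remaining pools count as changed when migration robust z lies outside -2 to 2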
- Meaning of the calls: active = migration changed; inactive = no migration change, or too few cells

For TLR7, the entry reads migration robust z-score -0.31; nuclei per well, duplicate mean 6487.
CKLF scored migration robust z-score 0.48; nuclei per well, duplicate mean 5798.
Depletion of CST1 resulted in: migration robust z-score -5.96; nuclei per well, duplicate mean 0.
With knock-down of SLCO2B1, the screen gave migration robust z-score -0.96; nuclei per well, duplicate mean 5236.
For BOC, the values are migration robust z-score -0.02; nuclei per well, duplicate mean 6469.
For ACRBP, the values are migration robust z-score -5.51; nuclei per well, duplicate mean 700.
Against EVI2A, the values are migration robust z-score -1.42; nuclei per well, duplicate mean 5576.
COL9A2 gave migration robust z-score 0.17; nuclei per well, duplicate mean 4746.
With knock-down of EPPK1 the results were migration robust z-score 0.16; nuclei per well, duplicate mean 6040.
OR4K2 gave migration robust z-score 0.15; nuclei per well, duplicate mean 2914.
For NPHP1, the entry reads migration robust z-score 0.24; nuclei per well, duplicate mean 5719.
Silencing of CC2D1A gave: migration robust z-score -0.34; nuclei per well, duplicate mean 6446.
Silencing of VPREB3 gave: migration robust z-score 1.96; nuclei per well, duplicate mean 6342.
Against PLOD2, the values are migration robust z-score 1.66; nuclei per well, duplicate mean 4913.

Copied from the entries so far, 2 entries:
CST1 → migration robust z-score = -5.96; nuclei per well, duplicate mean = 0
SLCO2B1 → migration robust z-score = -0.96; nuclei per well, duplicate mean = 5236
